PubChem BioAssay AID1224828 | NIAID | 2016

Assay: 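Regulators linking TLR4 signalling to p65 nuclear translocation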 (primary screen)
System: mouse RAW264.7 G9 macrophage reporter cells (GFP-p65, Tnf promoter-mCherry)
Knock-down reagent: siRNA pool against mouse genes, 100 nM
Time to read-out: 2 days siRNA transfection, then 40 min LPS before fixation
Treatment: LPS (Salmonella minnesota R595) at 10 ng/ml
Measurement: 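Microscopy ratio of nuclear to perinuclear-ring GFP-p65 signal, scaled to the plate median; gene score is the average of two replicate robust z-scores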
Scale: p65 translocation robust z-score: higher = more nuclear NF-kappaB p65 after LPS than the plate median; nuclear/cytoplasmic p65 ratio: higher = more nuclear NF-kappaB p65
Hit rule: 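Called active when z exceeds 3.3 or falls under -1.56 (median of Tlr4 controls), giving activity score of at least 50; no calls for control wells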
Calls: active = hit (p65 shift raised or lowered); inactive = no clear change
The deposit covers about 17,000 reagents; below is a part drawn at random. In the full data, 762 (4.5%) got an active call. 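Active calls include both raised and lowered p65 entry, mostly lowered; wells with fewer than 50 cells lack a z-score.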 Raw values vary from plate to plate and are shown uncorrected. Unmarked entries are inactive.

Eif1b gave p65 translocation robust z-score -0.26; nuclear/cytoplasmic p65 ratio, rep 1 = 1.38; nuclear/cytoplasmic p65 ratio, rep 2 = 1.53; low cell count flag enough cells to score.
Against Fech the deposit lists nuclear/cytoplasmic p65 ratio, rep 1 = 1.35; nuclear/cytoplasmic p65 ratio, rep 2 = 1.28; low cell count flag fewer than 50 cells per well; well left out of scoring.
Depletion of Tbcd resulted in: p65 translocation robust z-score -0.19; nuclear/cytoplasmic p65 ratio, rep 1 = 1.49; nuclear/cytoplasmic p65 ratio, rep 2 = 1.5; low cell count flag enough cells to score.
Pramel3c gave nuclear/cytoplasmic p65 ratio, rep 1 = 1.11; nuclear/cytoplasmic p65 ratio, rep 2 = 1.22; low cell count flag fewer than 50 cells per well; well left out of scoring.
Knock-down of Apoa1 resulted in: p65 translocation robust z-score -0.19; nuclear/cytoplasmic p65 ratio, rep 1 = 1.64; nuclear/cytoplasmic p65 ratio, rep 2 = 1.54; low cell count flag enough cells to score.
Enpp1 showed p65 translocation robust z-score -1.06; nuclear/cytoplasmic p65 ratio, rep 1 = 1.28; nuclear/cytoplasmic p65 ratio, rep 2 = 1.27; low cell count flag enough cells to score.
Silencing of Hapln1 gave: p65 translocation robust z-score 0.4; nuclear/cytoplasmic p65 ratio, rep 1 = 1.79; nuclear/cytoplasmic p65 ratio, rep 2 = 1.61; low cell count flag enough cells to score.
Ndel1 showed p65 translocation robust z-score -0.44; nuclear/cytoplasmic p65 ratio, rep 1 = 1.41; nuclear/cytoplasmic p65 ratio, rep 2 = 1.27; low cell count flag enough cells to score.
Knock-down of Sdsl came out at: p65 translocation robust z-score 2.11; nuclear/cytoplasmic p65 ratio, rep 1 = 1.75; nuclear/cytoplasmic p65 ratio, rep 2 = 1.96; low cell count flag enough cells to score.
Against Ythdf1, the entry reads p65 translocation robust z-score -0.14; nuclear/cytoplasmic p65 ratio, rep 1 = 1.4; nuclear/cytoplasmic p65 ratio, rep 2 = 1.24; low cell count flag enough cells to score.
Sack1h scored nuclear/cytoplasmic p65 ratio, rep 1 = 1.21; nuclear/cytoplasmic p65 ratio, rep 2 = 1.4; low cell count flag fewer than 50 cells per well; well left out of scoring.
Elovl6 scored p65 translocation robust z-score 0.76; nuclear/cytoplasmic p65 ratio, rep 1 = 1.49; nuclear/cytoplasmic p65 ratio, rep 2 = 1.53; low cell count flag enough cells to score.
Agmo scored p65 translocation robust z-score -1.28; nuclear/cytoplasmic p65 ratio, rep 1 = 1.15; nuclear/cytoplasmic p65 ratio, rep 2 = 1.42; low cell count flag enough cells to score.
Against Ano2 the deposit lists nuclear/cytoplasmic p65 ratio, rep 1 = 1.28; nuclear/cytoplasmic p65 ratio, rep 2 = 1.17; low cell count flag fewer than 50 cells per well; well left out of scoring.
Pcdhga8 gave p65 translocation robust z-score 0; nuclear/cytoplasmic p65 ratio, rep 1 = 1.38; nuclear/cytoplasmic p65 ratio, rep 2 = 1.29; low cell count flag enough cells to score.
C1qa scored p65 translocation robust z-score -0.45; nuclear/cytoplasmic p65 ratio, rep 1 = 1.61; nuclear/cytoplasmic p65 ratio, rep 2 = 1.48; low cell count flag enough cells to score.
Oas1a gave p65 translocation robust z-score 0.72; nuclear/cytoplasmic p65 ratio, rep 1 = 1.53; nuclear/cytoplasmic p65 ratio, rep 2 = 1.52; low cell count flag enough cells to score.
With knock-down of Poli, the record shows p65 translocation robust z-score -0.59; nuclear/cytoplasmic p65 ratio, rep 1 = 1.29; nuclear/cytoplasmic p65 ratio, rep 2 = 1.16; low cell count flag enough cells to score.

4 entries from above, sorted by “nuclear/cytoplasmic p65 ratio, rep 1”, highest first:
Hapln1 | p65 translocation robust z-score: 0.4; nuclear/cytoplasmic p65 ratio, rep 1: 1.79; nuclear/cytoplasmic p65 ratio, rep 2: 1.61; low cell count flag: enough cells to score
Sdsl | p65 translocation robust z-score: 2.11; nuclear/cytoplasmic p65 ratio, rep 1: 1.75; nuclear/cytoplasmic p65 ratio, rep 2: 1.96; low cell count flag: enough cells to score
Ndel1 | p65 translocation robust z-score: -0.44; nuclear/cytoplasmic p65 ratio, rep 1: 1.41; nuclear/cytoplasmic p65 ratio, rep 2: 1.27; low cell count flag: enough cells to score
Enpp1 | p65 translocation robust z-score: -1.06; nuclear/cytoplasmic p65 ratio, rep 1: 1.28; nuclear/cytoplasmic p65 ratio, rep 2: 1.27; low cell count flag: enough cells to score

Further reagents follow.
With knock-down of Ints12, the screen gave p65 translocation robust z-score 0.57; nuclear/cytoplasmic p65 ratio, rep 1 = 1.75; nuclear/cytoplasmic p65 ratio, rep 2 = 1.4; low cell count flag enough cells to score.
With knock-down of Zfp932, the screen gave nuclear/cytoplasmic p65 ratio, rep 1 = 1.19; nuclear/cytoplasmic p65 ratio, rep 2 = 0.827; low cell count flag fewer than 50 cells per well; well left out of scoring.
Srgap3 scored p65 translocation robust z-score -0.51; nuclear/cytoplasmic p65 ratio, rep 1 = 1.49; nuclear/cytoplasmic p65 ratio, rep 2 = 1.71; low cell count flag enough cells to score.
Knock-down of Igf2r came out at: p65 translocation robust z-score 0.71; nuclear/cytoplasmic p65 ratio, rep 1 = 1.49; nuclear/cytoplasmic p65 ratio, rep 2 = 1.5; low cell count flag enough cells to score.
Gprin1 showed nuclear/cytoplasmic p65 ratio, rep 1 = 1.02; nuclear/cytoplasmic p65 ratio, rep 2 = 1.38; low cell count flag fewer than 50 cells per well; well left out of scoring.
Against Ube2g2, the entry reads p65 translocation robust z-score 1.99; nuclear/cytoplasmic p65 ratio, rep 1 = 1.67; nuclear/cytoplasmic p65 ratio, rep 2 = 1.89; low cell count flag enough cells to score.
Silencing of P3h1 came out at: p65 translocation robust z-score 1.86; nuclear/cytoplasmic p65 ratio, rep 1 = 2.03; nuclear/cytoplasmic p65 ratio, rep 2 = 1.79; low cell count flag enough cells to score.
Against Gpatch2l, the values are nuclear/cytoplasmic p65 ratio, rep 1 = 1.6; nuclear/cytoplasmic p65 ratio, rep 2 = 1.23; low cell count flag fewer than 50 cells per well; well left out of scoring.
Against G0s2 the deposit lists p65 translocation robust z-score -1.68 (active); nuclear/cytoplasmic p65 ratio, rep 1 = 1.33; nuclear/cytoplasmic p65 ratio, rep 2 = 1.34; low cell count flag enough cells to score.
